Results are given in words; binding and its absence hold for the method and conditions named. In cells and extracts the contact can be indirect.

By UniProt entry, the sequences of proteins in these tests, tags left out. Where a name states a change or a piece, a line headed by the entry shows the natural chain unless it says otherwise.
UniProt P52630: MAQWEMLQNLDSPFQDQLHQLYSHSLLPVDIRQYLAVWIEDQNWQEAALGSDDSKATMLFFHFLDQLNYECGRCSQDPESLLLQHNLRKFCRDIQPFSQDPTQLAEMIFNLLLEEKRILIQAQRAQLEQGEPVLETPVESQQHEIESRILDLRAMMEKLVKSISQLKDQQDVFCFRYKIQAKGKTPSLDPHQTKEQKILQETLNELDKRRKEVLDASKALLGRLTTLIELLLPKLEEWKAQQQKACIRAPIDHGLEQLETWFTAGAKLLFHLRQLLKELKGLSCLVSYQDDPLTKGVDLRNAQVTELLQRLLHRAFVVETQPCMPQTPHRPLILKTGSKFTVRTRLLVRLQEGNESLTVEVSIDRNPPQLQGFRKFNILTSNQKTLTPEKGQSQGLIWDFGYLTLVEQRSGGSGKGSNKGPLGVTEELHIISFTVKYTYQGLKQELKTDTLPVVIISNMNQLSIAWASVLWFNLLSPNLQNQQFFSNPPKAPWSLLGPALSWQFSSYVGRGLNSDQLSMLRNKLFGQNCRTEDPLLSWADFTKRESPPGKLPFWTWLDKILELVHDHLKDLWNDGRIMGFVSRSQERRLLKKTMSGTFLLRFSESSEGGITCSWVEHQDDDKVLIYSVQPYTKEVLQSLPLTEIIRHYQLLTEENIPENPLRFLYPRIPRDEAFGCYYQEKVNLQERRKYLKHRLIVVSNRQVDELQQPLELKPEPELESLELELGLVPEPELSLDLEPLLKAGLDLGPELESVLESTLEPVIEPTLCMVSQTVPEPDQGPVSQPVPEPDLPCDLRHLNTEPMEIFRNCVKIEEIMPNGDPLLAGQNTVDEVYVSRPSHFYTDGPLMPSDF
UniProt P45974: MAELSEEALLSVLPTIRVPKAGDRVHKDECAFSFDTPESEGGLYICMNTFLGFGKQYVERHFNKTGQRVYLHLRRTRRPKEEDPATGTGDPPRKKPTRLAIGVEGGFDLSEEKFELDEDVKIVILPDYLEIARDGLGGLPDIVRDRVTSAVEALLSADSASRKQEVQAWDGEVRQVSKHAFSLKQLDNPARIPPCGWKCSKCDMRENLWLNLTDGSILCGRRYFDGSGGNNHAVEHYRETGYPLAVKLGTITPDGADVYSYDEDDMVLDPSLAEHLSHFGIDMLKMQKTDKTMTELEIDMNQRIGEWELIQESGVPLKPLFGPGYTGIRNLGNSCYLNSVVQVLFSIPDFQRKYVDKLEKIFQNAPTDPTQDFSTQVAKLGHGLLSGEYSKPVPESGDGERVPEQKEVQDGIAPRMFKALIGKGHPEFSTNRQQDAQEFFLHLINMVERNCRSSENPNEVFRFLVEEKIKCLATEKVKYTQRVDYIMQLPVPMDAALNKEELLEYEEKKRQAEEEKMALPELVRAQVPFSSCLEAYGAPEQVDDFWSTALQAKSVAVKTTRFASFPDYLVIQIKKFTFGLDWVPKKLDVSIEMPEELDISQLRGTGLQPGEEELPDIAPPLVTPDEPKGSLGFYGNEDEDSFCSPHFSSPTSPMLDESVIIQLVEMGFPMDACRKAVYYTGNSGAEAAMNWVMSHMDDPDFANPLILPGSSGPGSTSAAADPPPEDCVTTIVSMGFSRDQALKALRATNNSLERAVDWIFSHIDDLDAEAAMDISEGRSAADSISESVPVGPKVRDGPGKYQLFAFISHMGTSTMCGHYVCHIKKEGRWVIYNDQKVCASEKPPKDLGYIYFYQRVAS

The values that follow come from paper PMC12646668.

The test concerns the target FLAG-tagged Y690A-STAT2 (human) (UniProt P52630). As to the kind of experiment: co-IP; SUNE1 cells transfected with WT or mutant STAT2, IFN-β treated; IP lysis buffer, indicated antibodies overnight at 4°C, Protein A/G magnetic beads, Western blot.

For “USP5 (from UniProt P45974 1-858) (enzyme)”, the binding entry is “no binding”.
